# Results taken from article PMC12613848, “First in human phase 1 study of DT2216, a selective BCL-xL degrader, in patients with relapsed/refractory solid malignancies” (Journal of Hematology & Oncology, 2025).
# Assay: Safety and tolerability in patients (adverse events CTCAE v5.0, DLT, platelet count, RP2D)
# Assay type: in vivo, human
# Details: IV BIW
# Protocol: Dose escalation consisted of the administration of DT2216 intravenously twice weekly at several different doses outlined in protocol attached. The starting dose was 0.04 mg/kg, established based on pre-clinical toxicity studies. Safety was evaluated using CTCAE version 5.0. The initial three dose levels enrolled one patient, following which for dose level 4 and 5, a 3 + 3 design was utilized following a 100% incremental dose increase for dose levels 2 to 5 until the first dose limiting toxicity (DLT) in cycle 1 was observed. Thereafter, a modified Fibonacci sequence was used to define dose escalation increments until the maximum tolerated dose (MTD) was reached as described in protocol. If no dose-limiting toxicity (DLT) was observed during the DLT monitoring period of first 28 days, the next patient was enrolled at the next higher dose level. […]
# Patients were allowed a maximum of two intra-patient dose escalations. […] The extent of disease was evaluated using imaging studies and disease-appropriate tumor markers every 8 weeks from day 1 of the first cycle. […]
# Premedication prior to each infusion was at the discretion of the investigator or according to institutional guidelines. […] The clinical response was evaluated using RECIST v1.1 per protocol. […]
smiles,measurement,value
Cc1ncsc1-c1ccc([C@H](C)NC(=O)[C@@H]2C[C@@H](O)CN2C(=O)[C@@H](NC(=O)CCCCCC(=O)N2CCN(CC[C@H](CSc3ccccc3)Nc3ccc(S(=O)(=O)NC(=O)c4ccc(N5CCN(CC6=C(c7ccc(Cl)cc7)CCC(C)(C)C6)CC5)cc4)cc3S(=O)(=O)C(F)(F)F)CC2)C(C)(C)C)cc1 [DT2216],recommended phase 2 dose (RP2D),0.4 mg/kg
